# Reference: PubChem BioAssay AID662 (National Center for Advancing Translational Sciences (NCATS), 2007)
# The other results are listed elsewhere or left out. Further columns of the screen follow, without active or inactive calls. The list favours compounds with an active or inconclusive main result. Potencies come from curve fits of mixed quality, noted in brackets.
# Test: Cell signaling CRE-BLA (Fsk stim)
# Conditions: CHO CRE-bla reporter (cAMP response element driving beta-lactamase), forskolin EC10, beta-lactamase ratio; measured here: 460 nm blue channel
# Outline: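 CRE-bla CHO cells stimulated with EC10 NKH 477 (water-soluble forskolin) and compound titrations, 3 h at 37C; beta-lactamase read with CCF4 after 2 h at room temperature. Activity from 460/530 nm emission ratio, AC50 values for positive or negative modulation.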
row,SMILES,AC50
1,Cc1[nH]nc(-c2ccc(O)cc2O)c1-c1ccc(Cl)cc1,"0.316 µM [falling, single point]"
2,COc1cccc(C2CC(c3ccccc3Cl)n3ncnc3N2)c1 (configuration not stated),"12.6 µM [rising, single point]"
3,O=C(c1cnccn1)N1CCC2(CC1)CCN(C(c1ccccc1)c1ccccc1)CC2,"15.8 µM [falling, single point]"
4,CC(C)c1cccc2c([Si](C)(C)C)c3c(nc12)-c1cccc(=O)n1C3,"6.31 µM [rising, partial curve]"
5,COc1ccc2[nH]cc(CCNc3ccnc(-c4ccc(N(C)C)cc4)n3)c2c1,"1.58 µM [rising, full curve]"
6,COc1ccc(OCc2nnc3n2N=C(c2ccc(C)cc2)CS3)cc1,"12.6 µM [rising, partial curve]"
7,COc1cccc(C2=NOC(C(=O)Nc3cccc(C(C)=O)c3)C2)c1OC (configuration not stated),"12.6 µM [rising, single point]"
8,COc1cc(NS(=O)(=O)c2ccc(OC)c(C)c2C)c(OC)cc1Cl,"20 µM [rising, single point]"
9,CCOC(=O)c1c(NC(=O)c2ccc(Br)o2)sc(C)c1CC,"6.31 µM [rising, partial curve]"
10,COc1cccc(Nc2ncc3nc(-c4ccc(Cl)cc4)c(=O)n(C[C@H]4CCCO4)c3n2)c1,"2.51 µM [rising, full curve]"
11,Cc1cc2c(C)nc(-c3ccccc3)nc2o1,"0.316 µM [rising, full curve]"
12,COc1cc(Cl)ccc1NC(=O)COc1ccccc1C(=O)N1CCN(c2ccc(O)cc2)CC1,"3.16 µM [rising, single point]"
13,C=CCn1c2ccccc2c2nnc(SCC(=O)NC(C(=O)OC)C(C)C)nc21 (configuration not stated),"5.01 µM [rising, partial curve]"
14,COc1cc2c(cc1OC)C1=C(C#N)CCC(=O)N1CC2,"0.316 µM [rising, full curve]"
15,COc1ccc(OC)c(NC(=O)C(CC(C)C)NC(=O)C2CCCCC2)c1 (configuration not stated),"0.316 µM [falling, partial curve, poor fit]"
16,COc1ccc(-n2nnnc2SCC(=O)c2cc3ccccc3o2)cc1,"3.16 µM [falling, full curve]"
17,CCOC(=O)c1c(NC(=O)CSc2nnc(-c3cccnc3)o2)sc(C(C)=O)c1C,"25.1 µM [falling, single point]"
18,Cc1nnc2n1NC(c1ccc(Cl)cc1)C(C(=O)N1CCC(C)CC1)S2 (configuration not stated),"5.01 µM [falling, single point]"
19,Cc1ccc(-c2nnc3ccc(SCC(=O)N4CCCCC4)nn23)cc1,"0.00316 µM [falling, full curve, poor fit]"
20,CC1CCCCN1S(=O)(=O)c1ccc2c(c1)oc(=O)n2CC(=O)O (configuration not stated),"7.94 µM [rising, partial curve]"
21,CC1CCN(c2nc(-c3ccco3)c3c(c2C#N)CC(C)(C)OC3)CC1,"10 µM [rising, partial curve]"
22,Clc1ss/c(=N\c2ccccn2)c1Cl,"10 µM [falling, single point]"
23,N#Cc1nc(-c2ccccc2F)oc1NCc1cccc2c1OCO2,"12.6 µM [rising, partial curve]"

row,SMILES,AC50
1,O=C(Nc1nnc(C2CC2)s1)c1cccc(S(=O)(=O)N2CCc3ccccc32)c1,"12.6 µM [rising, partial curve]"
2,CSCC[C@H](NC(=O)OC(C)(C)C)c1nnc(SCc2ccccc2)o1,"3.16 µM [rising, single point]"
3,Cc1noc(C)c1-c1nccc(NCc2cccnc2)n1,"10 µM [rising, partial curve]"
4,CCCN1Cc2cccc(C(=O)NCc3ccccc3)c2C1=O,"10 µM [rising, partial curve]"
5,Cn1c(=O)c2c(nc(N3CCN(Cc4ccccc4)CC3)n2CCSc2ncccn2)n(C)c1=O,"25.1 µM [rising, single point]"
6,CCNc1nc(N2CCOCC2)nc(N(c2ccccc2)c2ccccc2)n1,"5.01 µM [falling, single point]"
7,Cc1nc2cnc(N3CCOCC3)nc2n(C2CC2)c1=O,"12.6 µM [rising, partial curve]"
8,Cc1ccc(S(=O)(=O)Nc2c(C)n(C)n(-c3ccccc3)c2=O)cc1C(=O)NCc1ccccn1,"0.126 µM [falling, full curve, poor fit]"
9,CCCCOc1ccc(-c2nnc(-c3ccncc3)o2)cc1,"0.00316 µM [falling, full curve, poor fit]"
10,O=c1[nH]c2cc3c(cc2cc1C(c1nnnn1C1CCCC1)N1CCSCC1)OCCO3 (configuration not stated),"3.98 µM [rising, full curve]"
11,COc1cc2c(=O)n(Cc3ccco3)c(=O)n(CC(=O)c3cccc(Br)c3)c2cc1OC,"2.51 µM [rising, full curve]"
12,O=C(Cn1cccc1C(=O)c1ccccc1)NCc1ccco1,"0.126 µM [falling, full curve, poor fit]"
13,N#Cc1c(NC(=O)CSc2nnc(-c3ccncc3)n2CC2CCCO2)sc2c1CCCC2 (configuration not stated),"10 µM [rising, partial curve]"
14,CC(SC1CCCC1)C(=O)Nc1ccnn1C(C)C (configuration not stated),"5.01 µM [falling, single point]"
15,CCOc1ccc(-c2nnc(N(CC)C(=O)C3CCC3)s2)cc1,"12.6 µM [rising, single point]"
16,Cc1ccc(S(=O)(=O)/C=C\C#N)cc1,"2.51 µM [falling, partial curve]"
17,COc1ccccc1-c1nc2s/c(=C\c3cccs3)c(=O)n2n1,"1 µM [falling, partial curve]"
18,CCCC(=O)OCCNC(=O)c1cc2ccccc2oc1=O,"1 µM [rising, partial curve]"
19,Cc1cc(=O)n2[nH]c(-c3ccc(Cl)cc3)cc2n1,"5.01 µM [rising, single point]"
20,CCC(C)(C)NC(=O)CN(CC1CCCO1)C(=O)CCC(=O)Nc1nccs1 (configuration not stated),"0.126 µM [rising, full curve, poor fit]"
21,COc1ccc(S(=O)(=O)N(C)CC(=O)N2CCCCCC2)cc1OC,"10 µM [rising, partial curve]"
22,COc1ccccc1C1/C(=C(/O)c2ccc(Cl)cc2)C(=O)C(=O)N1CCN1CCOCC1 (configuration not stated),"5.01 µM [falling, partial curve, poor fit]"
23,O=C1C(Cl)=C(N2CCOCC2)C(=O)N1c1ccccc1Cl,"1.58 µM [falling, partial curve, poor fit]"

row,SMILES,AC50
1,CC1(C)OC(=O)N(c2ccccn2)C1(C)O (configuration not stated),"3.98 µM [rising, single point]"
2,Cc1cccn2c(=O)c3cc(C#N)c(=NC(=O)c4ccc5c(c4)OCO5)n(CC(C)C)c3nc12,"0.631 µM [rising, partial curve, poor fit]"
3,O=C(CCCCCn1c(=S)[nH]c2cc3c(cc2c1=O)OCO3)N1CCN(Cc2ccccc2)CC1,"15.8 µM [rising, single point]"
4,Cc1ccc(-c2c(C)c(-c3ccc(F)cc3)nc(N)c2C#N)o1,"3.16 µM [falling, full curve]"
5,CC(C)CNC(=O)c1cc(-c2ccc(Br)cc2)on1,"25.1 µM [rising, single point]"
6,CCN(CC)S(=O)(=O)c1ccc2c3c(cccc13)C(=O)N2,"10 µM [rising, partial curve]"
7,Cc1cccn2cc(CNC(=O)C3CCCCC3)nc12,"3.16 µM [rising, single point]"
8,O=C(NCC(c1cccnc1)N1CCOCC1)Nc1ccccc1 (configuration not stated),"0.158 µM [falling, single point]"
9,CCn1nc(C(=O)OCC(=O)N2CCc3ccccc32)c2ccccc2c1=O,"5.01 µM [rising, partial curve]"
10,CC(C(=O)Nc1cccnc1)N1C(=O)C2C3C=CC(C3)C2C1=O (configuration not stated),"0.398 µM [falling, full curve]"
11,CCCCCC(=O)Nc1ccc2oc(-c3ccncc3)nc2c1,"20 µM [rising, single point]"
12,CCCCn1c(NCCC)nc2c1c(=O)[nH]c(=O)n2C,"10 µM [rising, single point]"
13,O=C(CSc1nnc(-c2ccncc2)n1CC1CCCO1)NCc1ccccc1 (configuration not stated),"0.1 µM [falling, partial curve, poor fit]"
14,COc1cc(NC(=O)C2CCN(S(=O)(=O)c3cccc4nonc34)CC2)cc(OC)c1,"0.0251 µM [falling, full curve, poor fit]"
15,COc1ccc(-c2nc3cnc(OC)nc3n(CCC#N)c2=O)cc1,"12.6 µM [rising, partial curve]"
16,COC(=O)c1ccc(CSc2nnnn2-c2ccccc2)o1,"0.398 µM [falling, full curve]"
17,CCOC(=O)CNC(=O)CSc1nc(N(C)C)nc(N2CCOCC2)n1,"25.1 µM [rising, single point]"
18,COc1ccc(C)cc1NC(=O)CSc1nnc(COc2ccc(Cl)cc2)n1Cc1ccco1,"0.316 µM [falling, full curve, poor fit]"
19,CN/S(=N/S(=O)(=O)c1ccccc1)c1ccc(C)cc1 (configuration not stated),"3.16 µM [falling, single point]"
20,Cc1ccc(-n2cccc2C(=S)N=P(N(C)C)(N(C)C)N(C)C)cc1,"5.01 µM [falling, single point]"
21,CC(C)C(CO)NC(=O)CC(=O)NC(CO)C(C)C (configuration not stated),"0.398 µM [rising, partial curve, poor fit]"

# As entered above.
# AC50, `CCCCn1c(NCCC)nc2c1c(=O)[nH]c(=O)n2C` reads 10 µM [rising, single point]
# AC50, `CN/S(=N/S(=O)(=O)c1ccccc1)c1ccc(C)cc1` (configuration not stated) reads 3.16 µM [falling, single point]
# AC50, `COc1cc(NC(=O)C2CCN(S(=O)(=O)c3cccc4nonc34)CC2)cc(OC)c1` reads 0.0251 µM [falling, full curve, poor fit]
